US20190240184A1, “PHARMACEUTICAL APPLICATIONS FOR (S)-N[…] SALTS THEREOF” (NATIONAL UNIVERSITY CORPORATION CHIBA UNIVERSITY, priority 2016, published 2019)

Tests used:
LPS-treated mice = assay: Locomotion test (LMT) in LPS-induced inflammatory model of depression; conditions: LMT 1 h after
[1] = tested on: social defeat stress mice; assay: Locomotion test (LMT) in social defeat stress model of depression; conditions: 10 mg/kg intraperitoneally, vs normal mice and stress mice administered saline
[2] = 10 mg/kg intraperitoneally 23 h after LPS, vs normal and saline groups

Row | Compound | amount of locomotion in LMT (LPS-treated mice; [2]) | amount of locomotion in LMT [1] | amount of locomotion in LMT (LPS-treated mice; 5, 10, or 20 mg/kg intraperitoneally 23 h after LPS, vs normal mice and LPS-treated mice administered saline)
1 | CNC1(c2ccccc2Cl)CCCCC1=O (racemic) [ketamine] | no difference in amount of locomotion | – | –
2 | N[C@@]1(c2ccccc2Cl)CCCCC1=O [(R)-norketamine] | – | no difference in amount of locomotion | –
3 | N[C@]1(c2ccccc2Cl)CCCCC1=O [(S)-norketamine] | – | no difference in amount of locomotion | –
4 | NC1(c2ccccc2Cl)CCCCC1=O (centres unmarked) [norketamine] | no difference in amount of locomotion | – | no difference in amount of locomotion
